This is an account of results in US20160053025A1.

Sequences of proteins named here, by UniProt entry; tags and fusion partners are left off. A change or cut given only in a name is not applied to a line headed by its entry. Residues count along the entry.
UniProt Q02763, residues 23-745: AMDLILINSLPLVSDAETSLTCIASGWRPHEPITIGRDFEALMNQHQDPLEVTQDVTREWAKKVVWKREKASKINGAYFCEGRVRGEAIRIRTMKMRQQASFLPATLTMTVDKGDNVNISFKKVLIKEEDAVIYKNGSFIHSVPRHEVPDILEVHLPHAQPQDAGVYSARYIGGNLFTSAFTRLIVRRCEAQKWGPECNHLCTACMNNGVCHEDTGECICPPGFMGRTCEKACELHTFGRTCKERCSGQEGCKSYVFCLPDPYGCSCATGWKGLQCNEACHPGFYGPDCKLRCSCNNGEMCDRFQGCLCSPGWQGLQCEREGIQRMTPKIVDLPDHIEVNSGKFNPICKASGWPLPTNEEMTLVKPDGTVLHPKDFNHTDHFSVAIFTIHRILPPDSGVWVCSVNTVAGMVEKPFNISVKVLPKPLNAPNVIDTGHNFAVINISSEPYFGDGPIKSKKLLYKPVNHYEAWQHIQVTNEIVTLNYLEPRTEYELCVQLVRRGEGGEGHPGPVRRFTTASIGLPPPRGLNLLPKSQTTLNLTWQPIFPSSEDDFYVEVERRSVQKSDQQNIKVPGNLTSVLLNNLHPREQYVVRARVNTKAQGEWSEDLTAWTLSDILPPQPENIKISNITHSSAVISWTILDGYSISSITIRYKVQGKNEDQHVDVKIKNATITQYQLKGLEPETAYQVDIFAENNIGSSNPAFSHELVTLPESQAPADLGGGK
UniProt O15123: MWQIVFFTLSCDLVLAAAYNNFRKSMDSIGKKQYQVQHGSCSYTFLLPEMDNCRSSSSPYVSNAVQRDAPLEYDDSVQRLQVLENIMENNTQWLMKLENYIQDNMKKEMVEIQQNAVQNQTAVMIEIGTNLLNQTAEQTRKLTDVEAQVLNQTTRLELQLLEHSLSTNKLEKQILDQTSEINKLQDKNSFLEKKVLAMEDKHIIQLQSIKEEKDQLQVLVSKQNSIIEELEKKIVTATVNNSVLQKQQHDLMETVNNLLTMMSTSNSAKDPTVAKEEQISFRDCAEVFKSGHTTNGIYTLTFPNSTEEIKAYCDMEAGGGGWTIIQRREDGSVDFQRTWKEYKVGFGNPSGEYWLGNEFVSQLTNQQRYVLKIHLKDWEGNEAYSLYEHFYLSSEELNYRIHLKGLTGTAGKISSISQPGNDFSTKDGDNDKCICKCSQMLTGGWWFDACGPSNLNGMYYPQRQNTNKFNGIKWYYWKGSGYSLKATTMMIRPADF

Results are given in words; binding and its absence hold for the method and conditions named. Some results given as binding are weak or reduced against the parent protein; the word gives no strength.

For this assay, the target named is hTie2-Fc (R&D Systems) (human) (UniProt Q02763). The assay can be described thus: Complex ELISA: plate coated with Tie2-Fc (4 ug/ml) or BSA, FLAG-Ang2 0.25 ug/ml, held Ang2 shown by 10D6 2 ug/ml and anti-mouse IgG-HRP, OD450. (An ELISA detects its analyte on a solid surface through an enzyme-linked reagent.)

As for “FLAG-tagged hAng-2 (from UniProt O15123 19-496) (ligand)”, the binding result was “binds”.
